From article PMC4770093, “The role of kinetic context in apparent biased agonism at GPCRs” (Nature Communications, 2016)
Some entries of the source have several records that differ or are many. They are shown here; other results are not. The source may hold further records. Values given together differ for a reason that is not stated; dose, time, organism, isomer or construct need not be as stated for each record.

Protein sequences, listed by entry. Tags and fused reporters are not part of them.
UniProt P14416, whole entry: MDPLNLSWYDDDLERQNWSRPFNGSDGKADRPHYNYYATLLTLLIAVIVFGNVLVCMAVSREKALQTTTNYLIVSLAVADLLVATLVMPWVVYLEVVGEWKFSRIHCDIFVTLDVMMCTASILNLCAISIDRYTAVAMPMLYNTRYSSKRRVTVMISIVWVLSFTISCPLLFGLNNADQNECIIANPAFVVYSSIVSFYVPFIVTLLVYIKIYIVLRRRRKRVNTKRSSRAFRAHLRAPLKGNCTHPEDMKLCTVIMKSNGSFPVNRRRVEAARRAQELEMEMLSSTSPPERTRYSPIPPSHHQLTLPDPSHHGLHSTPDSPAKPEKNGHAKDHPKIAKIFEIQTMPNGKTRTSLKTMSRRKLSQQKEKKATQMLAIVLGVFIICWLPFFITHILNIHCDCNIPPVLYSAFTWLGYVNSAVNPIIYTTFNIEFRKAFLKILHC

Molecular target: D2LR (Homo sapiens, UniProt P14416)
Test: Inhibition of forskolin-induced cAMP production (BRET CAMYEL biosensor); also: test concentration or dose not given here
Details: single experiments n = 1, 2, 3

Structure (SMILES) | Inhibition of cAMP production measured using a CAMYEL BRET biosensor, Net BRET (time 0.383333 mins) | Inhibition of cAMP production measured using a CAMYEL BRET biosensor, Net BRET (time 0.75 mins) | Inhibition of cAMP production measured using a CAMYEL BRET biosensor, Net BRET (time 1.11667 mins)
CN1CCN(c2cccc3[nH]c(=O)oc23)CC1 [Pardoprunox, pardoprunox] | 0.02263, 0.02384, 0.009659 | – | –
CCCN1CCC[C@@H](c2cccc(O)c2)C1 [S-3PPP, (S)-(-)-3-(3-hydroxyphenyl)-N-propylpiperidine] | – | 0.02173, 0.0472, 0.03133 | 0.02607, 0.06736, 0.04711
